# In the supplement of paper PMC3334620:
# The full ranking holds about 33,000 sequences; the median of “E-score (-0.5 to 0.5)” is about -8e-05, and the highest 2% start at about 0.23. The list shows a part of the results.
# Biological target: T1, Nrg2 (UniProt P38082)
# T1 sequence: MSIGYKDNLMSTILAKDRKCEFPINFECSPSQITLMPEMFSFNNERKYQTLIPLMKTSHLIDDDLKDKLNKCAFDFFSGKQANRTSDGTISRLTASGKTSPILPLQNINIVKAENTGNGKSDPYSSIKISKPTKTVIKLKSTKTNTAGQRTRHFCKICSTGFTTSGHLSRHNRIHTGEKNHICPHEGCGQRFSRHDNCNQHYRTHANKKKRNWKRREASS
# Test: PBM E-score (8-mer binding enrichment) (E-score (-0.5 to 0.5)); higher = stronger / more preferred TF binding
# Settings: protein concentration: 100 nM; construct: GST-full length
# Outline: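 Full-length yeast transcription factors or their DNA-binding domains, GST-tagged and expressed with PURExpress, were applied at about 100-200 nM to universal all-10-mer Agilent arrays. These arrays had been made double-stranded by primer extension on fresh or once-stripped slides. Detection used fluorescent anti-GST, normalisation used masliner, and E-scores for ungapped eight-base words pooled with reverse complements came from the Universal PBM Analysis Suite.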
row,Sequence,PBM E-score
1,GAAGCGCC,0.06
2,TAATATAA,0.302
3,AATGAGTG,0.203
4,ATGCGGTC,0.12
5,CTGATCGC,-0.0369
6,CCATGCGA,0.0611
7,CCCGCCCC,0.193
8,ATCACTAA,-0.0841
9,AAGAATCC,0.0617
10,CCTGCTAG,-0.214
11,AAGGATGC,-0.0428
12,AGGCATTC,-0.115
13,ACATCTCG,0.0593
14,GAGTACCA,0.142
15,TATCGTGA,0.0913
16,AAACACCT,-7e-05
17,AGTTCCAT,0.157
18,AGGTGTAC,-0.145
19,ACGCCCAC,-0.0361
20,GGACTACC,-0.229
21,AAGATGTG,0.0799
22,GGCGTCTA,-0.0534
23,TTAGACAA,0.00355
24,GGTTGTGA,0.0533
25,AAGAAAAA,-0.0197

row,Sequence,PBM E-score
1,ATGACCTG,-0.124
2,GCGCTGAA,-0.219
3,ATTACTGA,-0.0487
4,CCTCAATA,-0.0783
5,CTACTGAG,-0.00592
6,TCCAAAGA,-0.065
7,CGTTGCGA,-0.0989
8,ACGCACCG,-0.114
9,GATGGATA,-0.0483
10,ACCTTACT,0.0162
11,TAAGGCGA,-0.0249
12,AACAGAGT,0.0421
13,GTACGTAA,-0.169
14,AATGCGAA,-0.0243
15,GTTATAAC,-0.0643
16,ATAACTCG,0.1
17,CCCAAGAA,0.0831
18,AATCCAAT,0.174
19,GCCATAAA,-0.0219
20,GGTAAACC,-0.102
21,GTCACGCA,0.0867
22,CACCACTC,0.0931
23,ACTCACTC,0.0563
24,CAGCAAGC,-0.226
25,ACCACCGG,-0.144

row,Sequence,PBM E-score
1,AATTGAAC,-0.129
2,GAGCCCCA,-0.15
3,AGCGGCAA,0.00952
4,ACTATAGA,0.124
5,CCATACAG,-0.053
6,ACCCCTGG,0.0828
7,AATCCCTC,-0.0866
8,AGCGCGCA,0.205
9,CGAGCTTC,0.143
10,ATGTCTCG,0.016
11,AGAACCTA,-0.0297
12,CCATACTC,-0.0157
13,AAGTTGAA,0.0452
14,CATTTGCA,0.0564
15,ACCATCTA,-0.0677
16,GCCTATGA,-0.194
17,AGTTCAAG,0.182
18,AGATTCCT,-0.111
19,GCCTATAC,-0.229
20,CAGCGAGG,0.0395
21,AAACGATT,0.222
22,GCATCTGA,-0.169
23,CAAGTAAG,-0.0208
24,ACGAACCA,0.235
25,CCATTTGC,-0.0555

row,Sequence,PBM E-score
1,CGGCAGAA,0.154
2,GGTCACGA,0.0402
3,TGGAACCA,0.0904
4,ATAACCGA,-0.0269
5,CAAGGTGA,0.119
6,ATATGTCA,0.0889
7,GCAGTGCC,-0.171
8,ATGCGTAC,0.0134
9,TCACAAGA,0.0581
10,CGCCGAAC,0.00296
11,GTTTGCGA,0.0803
12,CGCAGCCA,-0.162
13,AGTTGGGA,0.0703
14,ATAGCCAT,0.0469
15,GAGTGAGA,0.0435
16,ATAGCTCG,-0.0336
17,ACGACACA,0.0824
18,CTACCAGA,-0.0347
19,TGTAATAA,0.141
20,CGCGTTCC,-0.00864
21,ATTCGACC,-0.0786
22,AACCTGTC,-0.0794
23,CTGATGAA,0.0121
24,CCCATTAA,-0.0676
25,CCACGCGG,-0.105

row,Sequence,PBM E-score
1,GAGTGGGA,-0.14
2,CATGGAAA,0.092
3,ACAGCAGG,0.0363
4,AATCATCA,0.171
5,ATGACGGA,-0.0207
6,GCTATTTA,0.0652
7,GAAGCATA,-0.107
8,ACGCACTG,-0.0871
9,AAAAGACA,0.112
10,ACTCTGCC,-0.142
11,CTGTTTAC,0.0618
12,CTCCTAAC,-0.0925
13,ACCGAGAA,0.0685
14,AATTCATA,0.0927
15,CCAGTTAA,0.193
16,CCATAGAC,-0.106
17,GTTATCCA,0.114
18,AACGTAGG,-0.148
19,AACACGTA,-0.144
20,GACCGTCC,-0.165
21,CAAAGCTC,-0.198
22,GAGTAGAC,0.00641
23,CCAAACAG,0.0678
24,AGTGACAT,0.0819
25,GCCAGGAA,0.0218

row,Sequence,PBM E-score
1,GAGCGCTA,0.0609
2,GATGAGAC,0.197
3,CTTACTAA,0.0213
4,CGCGAAAG,0.122
5,CGGGTCAG,0.023
6,GCTCACCC,-0.161
7,CTGCCTTC,-0.198
8,AAGCCCAT,-0.0683
9,AACATCAT,0.0625
10,AAGGCCAA,-0.201
11,AGACCTAT,-0.0252
12,CCTATTGA,0.0806
13,CCATGGCC,-0.0512
14,CATCCAGC,-0.0323
15,GGCGGAAC,0.0586
16,AGGCGTCC,-0.0544
17,AACAAAAG,-0.0749
18,GAGCTAGA,-0.0487
19,CCCTGAAC,0.282
20,GACTCTTA,0.0313
21,CTCTGAGA,0.0054
22,ACAATCAT,-0.062
23,AGTGAATG,0.172
24,ATGTCTTG,-0.162
25,AAGCGAAG,0.00012

row,Sequence,PBM E-score
1,TACGATCA,0.075
2,GCGCAAGA,0.102
3,ATAGCGCA,0.0651
4,CGTGTATA,0.121
5,GACATAGA,-0.0743
6,TACCGCCA,0.0249
7,CGTATGCC,-0.176
8,CTCAAAAG,0.0696
9,TCCATTAA,0.00365
10,GCGCCAGA,0.00891
11,TTAGCAAA,-0.0742
12,GTATCCAC,0.04
13,AAAGTGCG,0.0872
14,ATTCATAG,0.155
15,CCGGAGCA,-0.223
16,ACCGAACA,0.0615
17,CAATTGGC,0.133
18,GCTTGTAC,0.138
19,AGCTCTGC,-0.116
20,TGTACAAA,0.0674
21,CTGTATAA,-0.00975
22,AGAGTTAG,-0.0429
